Measurements reported in PubChem BioAssay AID1259308 (NCATS, 2017).

- Screen: 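Genes whose loss raises luciferase production in HEK293 cells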 (primary screen)
- System: human HEK293 embryonic kidney cells stably expressing firefly luciferase (HEK-CMV-Luc2-Hygro)
- Reagent: single siRNA against human genes, 0.8 pmol siRNA per well
- Time to read-out: 72 h
- Read-out: 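Reporter luminescence and viable-cell signal on separate replicate plates, given as percent of non-targeting control and median/MAD z-scores, plus per-cell luciferase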
- Reading the numbers: total luciferase, z-score and total luciferase, % of control: higher = more reporter protein produced; luciferase per cell, z-score: higher = more reporter output per viable cell; viable cells, % of control: higher = more viable cells
- Rule for the call: 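Active when the median/MAD z-score for overall luciferase is greater than 3; a gene was taken forward for validation with new siRNAs if at least two of its three siRNAs passed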
- Calls: active = raised luciferase; inactive = no rise
In all, the deposit lists about 59,000 reagents; below is an unselected part. About 1,510 of them (2.6%) count as active. 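Calls use total luciferase alone and ignore viability, so some active siRNAs may act by altering cell number.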 The numbers tell different reagents against one gene apart. Reagent sequences are not shown.

Target gene | siRNA no. | total luciferase, z-score | total luciferase, % of control | luciferase per cell, z-score | viable cells, % of control | Call
ERLEC1 (GeneID 27248) | 1 | 1.3 | 108 | 2.33 | 65.2 | inactive
ERLEC1 (GeneID 27248) | 2 | 0.0729 | 83.3 | -0.138 | 96.6 | inactive
ERLEC1 (GeneID 27248) | 3 | -0.622 | 69.5 | -0.953 | 99.8 | inactive
NINL (GeneID 22981) | 1 | 0.124 | 84.3 | -0.379 | 104 | inactive
NINL (GeneID 22981) | 2 | 0.0456 | 82.8 | 0.526 | 80.5 | inactive
NINL (GeneID 22981) | 3 | 1.38 | 109 | 1.16 | 90.2 | inactive
FES (GeneID 2242) | 1 | 0.388 | 89.6 | 0.385 | 90.5 | inactive
FES (GeneID 2242) | 2 | -0.394 | 74 | -0.989 | 107 | inactive
FES (GeneID 2242) | 3 | -2.14 | 39.3 | -1.41 | 63.6 | inactive
FSD1 (GeneID 79187) | 1 | 0.983 | 101 | 0.439 | 101 | inactive
FSD1 (GeneID 79187) | 2 | 1.75 | 117 | 1.65 | 84.4 | inactive
FSD1 (GeneID 79187) | 3 | 0.77 | 97.2 | 0.675 | 90.9 | inactive
CNTFR (GeneID 1271) | 1 | -0.756 | 66.9 | 1.46 | 50.8 | inactive
CNTFR (GeneID 1271) | 2 | -1.18 | 58.4 | -0.303 | 70.7 | inactive
CNTFR (GeneID 1271) | 3 | 1.25 | 107 | 0.458 | 106 | inactive
DRAM1 (GeneID 55332) | 1 | 1.55 | 113 | 1.57 | 83.1 | inactive
DRAM1 (GeneID 55332) | 2 | 1.2 | 106 | 0.367 | 107 | inactive
DRAM1 (GeneID 55332) | 3 | -1.09 | 60.3 | -0.0684 | 68.6 | inactive
EIF2S2P7 (GeneID 647016) | 1 | 2.05 | 123 | 3.07 | 61 | inactive
EIF2S2P7 (GeneID 647016) | 2 | 0.334 | 88.5 | 1.19 | 72.3 | inactive
EIF2S2P7 (GeneID 647016) | 3 | -0.885 | 64.3 | -0.901 | 91.1 | inactive
RGR (GeneID 5995) | 1 | -0.299 | 75.9 | -0.11 | 87.4 | inactive
RGR (GeneID 5995) | 2 | 0.759 | 97 | 1.26 | 77.8 | inactive
RGR (GeneID 5995) | 3 | -0.932 | 63.4 | -1.08 | 94.1 | inactive
POLR3D (GeneID 661) | 1 | 0.685 | 95.5 | 0.401 | 96 | inactive
POLR3D (GeneID 661) | 2 | -1.36 | 54.9 | -1.32 | 86.9 | inactive
POLR3D (GeneID 661) | 3 | 0.0768 | 83.4 | 0.343 | 85.2 | inactive
SOAT1 (GeneID 6646) | 1 | 0.025 | 82.4 | 0.74 | 75.8 | inactive
SOAT1 (GeneID 6646) | 2 | -0.0521 | 80.8 | -0.507 | 103 | inactive
SOAT1 (GeneID 6646) | 3 | 0.148 | 84.8 | -0.436 | 106 | inactive
CTAGE6 (GeneID 340307) | 1 | -2.37 | 34.8 | -2.08 | 67.4 | inactive
CTAGE6 (GeneID 340307) | 2 | 0.55 | 92.8 | 0.383 | 93.8 | inactive
CTAGE6 (GeneID 340307) | 3 | 1.33 | 108 | -0.145 | 126 | inactive
USP20 (GeneID 10868) | 1 | 2.18 | 125 | 1.32 | 98.8 | inactive
USP20 (GeneID 10868) | 2 | 2.38 | 129 | 2.11 | 82.8 | inactive
USP20 (GeneID 10868) | 3 | 0.153 | 84.9 | -0.447 | 107 | inactive
COMMD4P1 (GeneID 440292) | 1 | 1.56 | 113 | 0.92 | 99 | inactive
COMMD4P1 (GeneID 440292) | 2 | -1.16 | 58.8 | -1.38 | 94.5 | inactive
COMMD4P1 (GeneID 440292) | 3 | 0.186 | 85.6 | 0.105 | 93 | inactive

Reprinted from above, 2 entries:
Target gene | siRNA no. | total luciferase, z-score | total luciferase, % of control | luciferase per cell, z-score | viable cells, % of control | Call
FSD1 (GeneID 79187) | 2 | 1.75 | 117 | 1.65 | 84.4 | inactive
FSD1 (GeneID 79187) | 3 | 0.77 | 97.2 | 0.675 | 90.9 | inactive
